These are yes or no findings as the source states them, for the method shown. A result given as binding can be weak or reduced; the word gives no strength.
Molecular target: Chlamydomonas IFT-B1 pentamer CrIFT81/74_(128-C)/27/25_(1-136)/22 (Chlamydomonas reinhardtii)
Assay: SEC

B1: human RabL2B (protein, UniProt Q9UNT1 1-228)
chain: MAEDKTKPSELDQGKYDADDNVKIICLGDSAVGKSKLMERFLMDGFQPQQLSTYALTLYKHTATVDGRTILVDFWDTAGQERFQSMHASYYHKAHACIMVFDVQRKVTYRNLSTWYTELREFRPEIPCIVVANKIDDINVTQKSFNFAKKFSLPLYFVSAADGTNVVKLFNDAIRLAVSYKQNSQDFMDEIFQELENFSLEQEEEDVPDQEQSSSIETPSEEAASPHS
B1 was tested, and the binding was “binds”.

Reference: article doi:10.1101/2022.05.31.494111
